From the supplement of paper PMC3334620
In all, about 33,000 sequences were measured (“E-score (-0.5 to 0.5)”: median about -0.0059, highest 2% from about 0.26 on). The list shows a part of the results.

Molecular target: T1, Cin5 (UniProt P40917)
T1 sequence: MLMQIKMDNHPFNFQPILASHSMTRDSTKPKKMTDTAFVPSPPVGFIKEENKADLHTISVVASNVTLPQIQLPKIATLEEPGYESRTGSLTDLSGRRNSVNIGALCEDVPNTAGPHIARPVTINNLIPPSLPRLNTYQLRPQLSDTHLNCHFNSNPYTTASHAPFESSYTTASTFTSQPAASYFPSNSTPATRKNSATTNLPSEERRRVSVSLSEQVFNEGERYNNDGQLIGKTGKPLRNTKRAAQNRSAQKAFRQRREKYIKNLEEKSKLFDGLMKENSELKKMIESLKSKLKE
Assay: PBM E-score (8-mer binding enrichment) (E-score (-0.5 to 0.5)); higher = stronger / more preferred TF binding
Settings: protein concentration: 100 nM; construct: GST-full length
Outline: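 PURExpress in vitro transcription/translation supplied GST-tagged yeast transcription factors, either full-length or DNA-binding domain. Applied at about 100-200 nM to universal all-10-mer Agilent arrays double-stranded by primer extension, the bound protein was detected with fluorescent anti-GST. E-scores, modified Wilcoxon-Mann-Whitney statistics, were given by the Universal PBM Analysis Suite to ungapped eight-base words pooled with their reverse complements after masliner normalisation.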

Sequence | PBM E-score
ACGGGGCC | -0.0302
AATACTAG | 0.204
CGACCAAC | -0.0255
GGGAACAC | -0.0243
AAGATCTC | -0.0558
GATGGAGA | 0.00158
CCTCCCTA | -0.245
CTCAGCTC | -0.139
ATGACAGC | 0.0951
GAGGAAGC | -0.223
ACTCCCGG | -0.0856
CAGATGTC | -0.0243
AAGTCACT | -0.0106
CACACGTC | -0.23
AACGGAGC | -0.187
GGCTGCCA | -0.192
CCCCGTAC | -0.241
GGCAACAA | 0.124
AGAGATTC | 0.0385
AATTCCGA | 0.151
AGATCTGG | -0.193
GAGATCCA | -0.00918

Sequence | PBM E-score
GACAATGC | -0.00472
CGCGATCC | 0.00515
ACACGAAA | 0.193
GTCAATTA | 0.024
ACGGTGCG | -0.0608
TAGTTATA | 0.23
ACCGCCGA | -0.133
CTTACAAA | 0.192
CATCTTCG | 0.109
GTCACTGA | -0.0276
ATTTCACA | 0.214
ATTCTGAG | -0.0347
TATTGTCA | 0.191
ACATGCCT | -0.201
AAACAAGA | 0.0674
AGGACTTC | -0.241
GTGCGAAA | -0.00601
GTGGAAAA | 0.0919
AGACCACG | -0.214
AGTAGCAA | 0.136
CAAAACCC | 0.0411
AGACCCAA | 0.0315

Sequence | PBM E-score
CGCGCCAC | 0.0114
CACTCATC | 0.031
CCAGCGTC | -0.249
AGCAGCGC | -0.0185
GGTGAGTA | -0.00832
CATCGACA | -0.103
ATCACACA | 0.16
AAGTGTGG | 0.00252
GGAGCGGA | -0.124
AGTCCTCG | -0.179
AGGCCTGC | -0.232
CGGGAACG | -0.00694
ACCCCGAG | -0.128
AACGCCTA | 0.0388
ACACACTC | 0.218
CATGAATA | -0.0377
GACGCATA | 0.111
ACTGACGG | -0.123
ACTCCCTC | -0.224
ACCATTGG | 0.0343
CTAACTAA | 0.15
ATGCTCGC | 0.0419

Pulled one by one from the entries so far:
Sequence | PBM E-score
CCTCCCTA | -0.245
TATTGTCA | 0.191
CGGGAACG | -0.00694
GTCACTGA | -0.0276
GACGCATA | 0.111
AACGGAGC | -0.187
ACTGACGG | -0.123

Continuation:

Sequence | PBM E-score
AGCCTGAA | -0.037
AACTTGGC | 0.103
ACGTCTAC | -0.114
CCAGAGCG | -0.146
AAATCCCC | -0.131
CAGGCAAA | -0.00195
GCGCTAAC | -0.0995
ACCCCACG | -0.0358
ATCGGAAC | 0.267
CCTGGACC | -0.145
GTGGGCAA | -0.0179
AAGTCGCC | -0.242
CCACCTAA | 0.0475
AGACCGCT | -0.167
ACGGGTGG | 0.0946
CATAACAA | 0.252
CTCAGAAG | -0.157
ATGCTAAC | 0.0717
ACTCCGAC | -0.104
CGCGCACA | 0.123
AAAATGTC | 0.0971
AGCTCTGG | -0.213

Sequence | PBM E-score
AAAATTGC | 0.0665
CATCGAGA | 0.13
GTGGGAGA | -0.227
CGACCGAG | -0.0976
CAACTTGC | -0.0974
CAATGGTG | -0.161
ATGGTTCC | 0.109
CCGTCGGC | -0.262
GTTTCAGA | -0.0438
GACGTACA | 0.0813
ACCCAAGA | -0.0441
AGAGAGTC | -0.156
AGCGAGCC | -0.0601
AACCGCCA | -0.136
CTGCGGCA | -0.222
CGTTACCC | -0.0645
CCAGTCAC | -0.172
CAACCCGG | -0.222
ATAGTAAA | 0.198
TGATCAAA | 0.0816
GAAATAGC | 0.0697
ATACATTC | 0.153
